Source: publication PMC10758104
No constants are given. Whether binding was seen depends on the method and setting. Binding seen in cells or lysates may run through a third protein. Here binding means that the protein was enriched with, or labelled near, the bait; the list need not be complete. Tags and fused reporters may be left off the sequences shown.

Target: T1, SLC40A1 (Flag-tagged, overexpressed in cardiomyocytes of Slc40a1 transgenic mice) (UniProt Q9JHI9)
T1 sequence: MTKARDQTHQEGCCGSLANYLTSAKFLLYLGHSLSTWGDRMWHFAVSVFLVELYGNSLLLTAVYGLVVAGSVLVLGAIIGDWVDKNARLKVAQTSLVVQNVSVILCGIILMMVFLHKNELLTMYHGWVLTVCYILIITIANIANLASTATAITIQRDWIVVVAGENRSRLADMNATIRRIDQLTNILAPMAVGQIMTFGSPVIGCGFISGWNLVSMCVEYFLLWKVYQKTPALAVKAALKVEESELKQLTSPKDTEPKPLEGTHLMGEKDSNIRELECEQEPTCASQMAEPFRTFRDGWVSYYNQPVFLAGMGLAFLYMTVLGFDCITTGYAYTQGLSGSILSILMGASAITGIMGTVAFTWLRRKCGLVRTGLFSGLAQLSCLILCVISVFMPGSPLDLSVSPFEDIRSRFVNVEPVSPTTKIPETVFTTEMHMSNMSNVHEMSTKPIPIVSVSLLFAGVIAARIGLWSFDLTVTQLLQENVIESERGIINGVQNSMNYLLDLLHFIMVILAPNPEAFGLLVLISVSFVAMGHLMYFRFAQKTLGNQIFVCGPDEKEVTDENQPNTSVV
Assay: affinity purification with mass spectrometry; Co-IP from mouse heart lysate followed by LC-MS/MS for Flag-interacting proteins (Q Exactive HF-X, EASY-nLC 1200)

B1: Steap4 (six transmembrane epithelial antigen of prostate 4) (protein, UniProt Q923B6 1-470)
chain: MEKAHADEFPLTTDSSEKQGVVCIFGTGDFGKSLGLKMLQCGYSIVFGSRNPQVSSLLPRGAEVLSYSEAASKSDIIILAMHREHYDSLTELVDYLKGKVLVDVSNNRKINQYPESNAEYLAQLEPGAHVVKAFNTISAWALQSGTLDASRQVFVCGNDSKAKQRVMDIARTLGLTPLDQGSLMAASEIENYPLQLFPMWRFPFYLSSVLCVFFFVYCAIREVIYPYVNGKTDATYRLAISIPNRVFPITALILLALVYLPGILAAILQLYRGTKYRRFPNWLDHWMLCRKQLGLVALGFAFLHVIYTLVIPIRYYVRWRLRNATITQALTNKDSPFITSYAWINDSYLALGILGFFLFLLLGITSLPSVSNMVNWREFRFVQSKLGYLTLVLCTAHTLVYGGKRFLSPSILRWSLPSAYILALVIPCAVLVLKCILIMPCIDKTLTRIRQGWERNSKYTQSALNGKSDI
binding: binds
